Assay results reported in patent US20250326816A1 (KOREA UNIVERSITY RESEARCH AND BUSINESS FOUNDATION, published 2025).
Positions count from the first letter of the chain named. Results are given in words; binding and its absence hold for the method and conditions named. Some entries that bind do so weakly or less than the wild type. Sequences can lack the tags named with a protein.

Columns and labels:
[1] = target: T1, ICOS-L A184 variant fused to antibody Fc domain (LALAPG) (human) (UniProt O75144); assay: ELISA, ICOS-L-Fc coated at 4 ug/ml, His-tagged ICOS monomer titrated, anti-His-HRP
T1 sequence: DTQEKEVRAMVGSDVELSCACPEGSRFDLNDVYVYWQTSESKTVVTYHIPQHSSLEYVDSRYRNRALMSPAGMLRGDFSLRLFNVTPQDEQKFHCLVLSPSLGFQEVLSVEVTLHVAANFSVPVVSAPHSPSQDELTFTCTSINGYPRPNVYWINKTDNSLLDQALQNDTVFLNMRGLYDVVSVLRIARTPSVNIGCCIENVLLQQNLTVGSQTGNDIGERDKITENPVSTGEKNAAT

A184 = target: T2, A184; assay: flow cytometry of yeast displaying the ICOS-L variant, ICOS-Fc-Alexa488 at 67.7 nM
T2 sequence: T1 sequence

[2] = target: T3, ICOS-L variant Y13 displayed on yeast (ICOS-L-Aga2-FLAG format) (Homo sapiens (Human)) (UniProt O75144); assay: as above
T3 sequence: T1 sequence with Q51H, H52N, S54N, Y57N, P100Q, S130C

[3] = target: T4, ICOS-L variant Y20 displayed on yeast (ICOS-L-Aga2-FLAG format) (Homo sapiens (Human)) (UniProt O75144); assay: as above
T4 sequence: T1 sequence with H52S, Y57N, P100Q, K234R

[4] = target: T5, ICOS-L variant Y35 displayed on yeast (ICOS-L-Aga2-FLAG format) (Homo sapiens (Human)) (UniProt O75144); assay: as above
T5 sequence: T1 sequence with E4D, Q51P, H52N, Y57N, P100Q

[5] = target: T6, ICOS-L variant Y48 displayed on yeast (ICOS-L-Aga2-FLAG format) (Homo sapiens (Human)) (UniProt O75144); assay: as above
T6 sequence: T1 sequence with Q51P, H52N, Y57N, L74R, P100Q

[6] = target: T7, ICOS-L variant Y8 displayed on yeast (ICOS-L-Aga2-FLAG format) (Homo sapiens (Human)) (UniProt O75144); assay: as above
T7 sequence: T1 sequence with Q51P, H52N, Y57H, P100Q

Measured: binding

B1: ICOS monomer protein (ICOS E21-H129) (receptor, human, UniProt Q9Y6W8 21-129, looked up)
chain: EINGSANYEMFIFHNGGVQILCKYPDIVQQFKMQLLKGGQILCDLTKTKGSGNTVSIKSLKFCHSQLSNNSVSFFLYNLDHSHANYYFCNLSIFDPPPFKVTLTGGYLH
notes: range 21-129; also called wild-type ICOS
binds: [1]

B2: Dimeric human ICOS (ICOS-Fc) (Fc fusion, UniProt Q9Y6W8 21-140, looked up)
chain: EINGSANYEMFIFHNGGVQILCKYPDIVQQFKMQLLKGGQILCDLTKTKGSGNTVSIKSLKFCHSQLSNNSVSFFLYNLDHSHANYYFCNLSIFDPPPFKVTLTGGYLHIYESQLCCQLK
notes: range 21-140; Fc at the C-terminus of ICOS to induce dimerization; Labeled with Alexa488 when used as probe in the flow cytometry on yeast; also called ICOS-Fc dimer protein; ICOS dimer protein; not shown: GS linker of glycine and serine; Fc region (domain) of human IgG antibody
not listed: [1]
binds: all other assays above
